These are yes or no findings as the source states them, for the method shown.
Target: Phafin2 (human) (UniProt Q9H8W4)
Assay: AUC; sedimentation velocity; Phafin2 10 uM in 8 mM Tris-HCl (pH 7.3), 50 mM NaCl; 20°C, 50,000 rpm, absorbance at 230 nm; both purified

binding: no binding (tested: 10 μΜ)
B1: Phafin2 (protein, UniProt Q9H8W4 1-249)
chain: GSMVDRLANSEANTRRISIVENCFGAAGQPLTIPGRVLIGEGVLTKLCRKKPKARQFFLFNDILVYGNIVIQKKKYNKQHIIPLENVTIDSIKDEGDLRNGWLIKTPTKSFAVYAATATEKSEWMNHINKCVTDLLSKSGKTPSNEHAAVWVPDSEATVCMRCQKAKFTPVNRRHHCRKCGFVVCGPCSEKRFLLPSQSSKPVRICDFCYDLLSAGDMATCQPARSDSYSQSLKSPLNDMSDDDDDDDSSD

From PMC5368057, “Structural, thermodynamic, and phosphatidylinositol 3‐phosphate binding properties of Phafin2” (Protein Science : A Publication of the Protein Society, 2017)
